Results are given in words; binding and its absence hold for the method and conditions named.
Molecular target: catalytic domain of Calcineurin (Cn A), residues 2-347 with Y341S, L343A, M347D (UniProt Q08209)
Experiment: fluorescence polarisation; competition: variable concentrations of non-labeled peptide added to 100 nM FITC-labeled PVIVIT peptide and 4 uM Cn A, 96-well plate, triplicate; fitted to a single site inhibition model; both purified

Binder | binding
TTAMNPQFFVQIPRTA (N-terminal acetylation, C-terminal amidation) [CAPN11 peptide] | no binding
TFHTNPQYRIKLEEPD (N-terminal acetylation, C-terminal amidation) [rbmCAPN11_2] | no binding
TFWTNPQYRIKLEEAD (N-terminal acetylation, C-terminal amidation) [rbmCAPN11_3] | no binding

From article PMC9928118, “Funneling modulatory peptide design with generative models: Discovery and characterization of disruptors of calcineurin protein-protein interactions” (PLOS Computational Biology, 2023)
